In PubChem BioAssay AID328 (DTP/NCI, 2004):
The list is a part of this screen's results and no random one: it is rich in T/C values a quarter to a half above the control, in often repeated tests (any T/C) and in doses without a T/C. Further doses and runs are listed elsewhere. T/C is the treated group as % of the vehicle group. Some doses have a count of surviving animals in place of a T/C: the source files T/C as zero there, which appears to mark a toxic dose or a test without result, not a measured value. Some doses without a T/C left all or most animals alive at the check, yet need not have been tolerated: survival well below the control is almost never listed, so the zero probably covers shortened survival too. Survivors were counted at the toxicity check, usually on the fifth day, unless a day is given; later deaths do not show. Schedule codes are those of the source, read here as Q, the interval in days (D) or hours (H), X, the number of doses. Some entries hold several experiments; their values stand side by side, smallest first. Brackets with × count equal records among those shown. For survival time, the PubChem record calls one and a half times the control and up active, and a quarter to a half above the control has no call in these data; cut-offs in other NCI protocols can differ. Some T/C values carry the count of animals alive at the toxicity check (mostly the fifth day); where none is given, no animal had died by that day. Positions of bridges follow the written chain, without caps; N, C: chain ends. Non-standard residues stand in square brackets, D forms with d. Residues, ends and D or L forms follow the SMILES beside them. NMeV = CN[CH](C(=O)O)C(C)C; Sar = CNCC(=O)O

Tested on: BDF1 mice, P388 leukemia ip, median survival T/C
Test: NCI In Vivo Anticancer Drug Screen. Data for tumor model P388 Leukemia (intraperitoneal) in B6D2F1 (BDF1) mice
Details: T/C endpoint: median survival time, higher T/C = longer survival
Method in brief: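 Vehicle-dosed animals serve as the reference; survival of compound-dosed, tumour-implanted mice is divided by it.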

[1] = dose: 200.0 mg/kg/injection, schedule: Q01DX009 (ip), vehicle: saline
[2] = dose: 400.0 mg/kg/injection, schedule: Q01DX009 (ip), vehicle: saline
[3] = dose: 200.0 mg/kg/injection, schedule: Q01DX009 (ip), vehicle: saline with Tween-80
[4] = dose: 100.0 mg/kg/injection, schedule: Q04DX003 (ip), vehicle: saline
[5] = dose: 50.0 mg/kg/injection, schedule: Q01DX009 (ip), vehicle: saline with Tween-80
[6] = dose: 200.0 mg/kg/injection, schedule: Q04DX003 (ip), vehicle: saline
[7] = dose: 100.0 mg/kg/injection, schedule: Q01DX009 (ip), vehicle: Klucel (hydroxypropylcellulose) (HPC)
[8] = dose: 200.0 mg/kg/injection, schedule: Q01DX009 (ip), vehicle: Klucel (hydroxypropylcellulose) (HPC)
[9] = dose: 400.0 mg/kg/injection, schedule: Q01DX009 (ip), vehicle: Klucel (hydroxypropylcellulose) (HPC)
[10] = dose: 50.0 mg/kg/injection, schedule: Q04DX003 (ip), vehicle: saline with Tween-80
[11] = dose: 400.0 mg/kg/injection, schedule: Q01DX009 (ip), vehicle: saline with Tween-80
[12] = dose: 12.5 mg/kg/injection, schedule: Q01DX009 (ip), vehicle: saline
[13] = dose: 50.0 mg/kg/injection, schedule: Q01DX009 (ip), vehicle: saline
[14] = dose: 100.0 mg/kg/injection, schedule: Q01DX009 (ip), vehicle: saline
[15] = dose: 25.0 mg/kg/injection, schedule: Q01DX009 (ip), vehicle: saline with Tween-80

In the case of `CN(C)CCCNc1ccc(O)c2c1C(=O)c1ccccc1C2=O`, the T/C (dose: 50.0 mg/kg/injection, schedule: Q01DX009 (ip), vehicle: saline, evaluated on day 20) is reported as 106 [5 of 6 alive], 121, 125 % of control, the T/C (dose: 50.0 mg/kg/injection, schedule: Q01DX009 (ip), vehicle: saline, evaluated on day 30) is reported as 117 % of control and the T/C (dose: 100.0 mg/kg/injection, schedule: Q01DX009 (ip), vehicle: saline, evaluated on day 20) is reported as 112 [5 of 6 alive], 116, 131 % of control. For the same molecule, the T/C (dose: 100.0 mg/kg/injection, schedule: Q01DX009 (ip), vehicle: saline, evaluated on day 30) was 117 % of control, the T/C [1] was 144 % of control and the survivor count [1] was 5 of 6. The survivor count [2] was 0 of 6 (2×) and the survivor count (dose: 400.0 mg/kg/injection, schedule: Q04DX003 (ip), vehicle: saline) was 5 of 6.
`O=C(Cl)C1=C(c2ccccc2)C1c1ccccc1` (stereo unspecified) was tested, and the survivor count [3] was 0 of 6.
With `Cc1n(CC(C)C)c2c([n+]1CC(=O)c1ccc([N+](=O)[O-])cc1)C(=O)c1ccccc1C2=O` the survivor count (dose: 10.0 mg/kg/injection, schedule: Q01DX010 (ip), vehicle: saline) was 1 of 6.
`Cc1ncc([N+](=O)[O-])n1CCSC(Cl)(Cl)Cl` was tested, and the T/C [4] was 138 % of control.
`NC(CSC(c1ccccc1)(c1ccccc1)c1ccc(Br)cc1)C(=O)O` (stereo unspecified) was tested, and the T/C (dose: 15.0 mg/kg/injection, schedule: Q04DX003 (ip), vehicle: Klucel (hydroxypropylcellulose) (HPC)) was 145 % of control, the T/C [5] was 125 % of control and the T/C [4] was 145 % of control. For the same molecule, the survivor count [3] was 5 of 6, the T/C [6] was 140 % of control and the survivor count [6] was 4 of 6.
For `Cc1ccc(C(Br)C2=CC(C)(C)c3ccccc3C2=O)cc1` (stereo unspecified), the T/C [7] was 130 % of control, the survivor count [7] was 6 of 6 and the T/C [8] was 130 % of control. For the same molecule, the T/C [9] was 130 % of control.
For `N=C(N)SCc1c2ccccc2c(CSC(=N)N)c2ccccc12`, the T/C (dose: 5.0 mg/kg/injection, schedule: Q01DX010 (ip), vehicle: saline) was 141 % of control and the T/C (dose: 40.0 mg/kg/injection, schedule: Q01DX010 (ip), vehicle: saline) was 145 % of control.
In the case of `Cc1noc(C)c1CC1(Cc2c(C)noc2C)C(=O)CCC2(C)CCCC=C21` (stereo unspecified), the survivor count [9] is reported as 6 of 6.
`CC(C)C1NC(=O)C(N)C(C)OC(=O)C(C(C)C)N(C)C(=O)CN(C)C(=O)C2CCCN2C1=O` (stereo unspecified) (tested in a mixture with another compound) (H-TVP[Sar][NMeV]; ester 1-C; configuration not given here) was tested, and the T/C (dose: 0.3 mg/kg/injection, schedule: Q04DX003 (ip), vehicle: saline + alcohol) was 145 % of control, the survivor count (dose: 0.8 mg/kg/injection, schedule: Q01DX009 (ip), vehicle: saline + alcohol) was 7 of 8 and the T/C (dose: 1.2 mg/kg/injection, schedule: Q04DX003 (ip), vehicle: saline + alcohol) was 128 % of control. For the same molecule, the survivor count (dose: 2.4 mg/kg/injection, schedule: Q04DX003 (ip), vehicle: saline + alcohol) was 3 of 8 and 5 of 8.
`CCOCCO` was tested, and the survivor count (dose: 20.0 mg/kg/injection, schedule: Q01DX009 (ip), vehicle: saline) was 6 of 6.
`O=C(O)CC1SC(=S)N(c2ccccc2)C1=O` (stereo unspecified) was tested, and the survivor count [3] was 6 of 6.
With `CCC(C)(O)C(=O)OC1C(=O)OC2CC3C(C)CC(=O)C(O)C3(C)C3C4(O)OCC23C1C(C)C4O` (stereo unspecified) the T/C (dose: 2.0 mg/kg/injection, schedule: Q01DX009 (ip), vehicle: saline with Tween-80) was 127 % of control, the T/C (dose: 4.0 mg/kg/injection, schedule: Q01DX009 (ip), vehicle: saline with Tween-80) was 127 % of control and the T/C (dose: 32.0 mg/kg/injection, schedule: Q01DX009 (ip), vehicle: saline with Tween-80) was 129 % of control.
With `CCCCS(=O)(=O)OCCCCOS(=O)(=O)CCCC` the T/C (dose: 400.0 mg/kg/injection, schedule: Q04DX003 (ip), vehicle: saline with Tween-80) was 136 % of control.
In the case of `O=C1C(NC(=O)C2CCCCC2)=C(N2CC2)C(=O)C(NC(=O)C2CCCCC2)=C1N1CC1`, the T/C (dose: 25.0 mg/kg/injection, schedule: Q01DX009 (ip), vehicle: Klucel (hydroxypropylcellulose) (HPC)) is reported as 125 % of control, the T/C (dose: 25.0 mg/kg/injection, schedule: Q01DX010 (ip), vehicle: saline) is reported as 136 % of control and the T/C (dose: 50.0 mg/kg/injection, schedule: Q01DX009 (ip), vehicle: Klucel (hydroxypropylcellulose) (HPC)) is reported as 129 and 146 % of control. For the same molecule, the T/C (dose: 50.0 mg/kg/injection, schedule: Q01DX010 (ip), vehicle: saline) was 140 % of control and the T/C [7] was 144 % of control.
With `NC(=S)N/N=C\c1nccc2c(C(F)(F)F)cccc12` the survivor count [10] was 1 of 6, the survivor count (dose: 100.0 mg/kg/injection, schedule: Q04DX003 (ip), vehicle: saline with Tween-80) was 0 of 6 and the survivor count (dose: 200.0 mg/kg/injection, schedule: Q04DX003 (ip), vehicle: saline with Tween-80) was 0 of 6.
In the case of `CCOC(=O)[C@]1(Br)CC[C@@]1(Br)C(=O)OCC`, the T/C [5] is reported as 130 % of control, the T/C (dose: 100.0 mg/kg/injection, schedule: Q01DX009 (ip), vehicle: saline with Tween-80) is reported as 131 and 133 % of control and the T/C [3] is reported as 132, 137, 148 % of control. The survivor count [11] was 5 of 6.
For `CSc1nc2n(C)cc(C)cc-2c(=O)n1`, the survivor count (dose: 200.0 mg/kg/injection, schedule: Q01DX001 (ip), vehicle: suspension in saline) was 3 of 6 and the survivor count (dose: 400.0 mg/kg/injection, schedule: Q01DX001 (ip), vehicle: suspension in saline) was 3 of 6.
In the case of `CCOC(=O)N(C)c1ccccc1`, the survivor count (dose: 100.0 mg/kg/injection, schedule: Q04DX003 (ip), vehicle: Klucel (hydroxypropylcellulose) (HPC)) is reported as 6 of 6, the survivor count (dose: 200.0 mg/kg/injection, schedule: Q04DX003 (ip), vehicle: Klucel (hydroxypropylcellulose) (HPC)) is reported as 5 of 6 and the survivor count (dose: 400.0 mg/kg/injection, schedule: Q04DX003 (ip), vehicle: Klucel (hydroxypropylcellulose) (HPC)) is reported as 6 of 6.
With `CN(S(=O)(=O)CC(F)(F)F)S(=O)(=O)C(F)(F)F` the survivor count [12] was 5 of 6, the survivor count (dose: 25.0 mg/kg/injection, schedule: Q01DX009 (ip), vehicle: saline) was 6 of 6 and the survivor count [13] was 5 of 6 and 6 of 6. The survivor count [14] was 5 of 6, the survivor count [1] was 4 of 6 and the survivor count [2] was 5 of 6.
With `N#C/C(=C\c1ccncc1)c1ccccc1` the survivor count [15] was 6 of 6 and the survivor count [11] was 3 of 6.
In the case of `CCOC(=O)C1=S=C(SC)N(C)C1=O`, the T/C [3] is reported as 132 % of control [5 of 6 alive], the survivor count [3] is reported as 1 of 6 and the survivor count [11] is reported as 0 of 6.
In the case of `CCCCCCC(=O)NC1=C(N2CC2)C(=O)C(NC(=O)CCCCCC)=C(N2CC2)C1=O`, the T/C (dose: 12.5 mg/kg/injection, schedule: Q01DX009 (ip), vehicle: Klucel (hydroxypropylcellulose) (HPC)) is reported as 141 % of control and the survivor count [8] is reported as 6 of 6.
For `CN(C)[C@@H]1C(=O)C(C(N)=O)=C(O)[C@@]2(O)C(=O)C3=C(O)c4c(O)ccc(Cl)c4[C@@](C)(O)[C@H]3C[C@@H]12`, the T/C [13] was 135 % of control, the T/C [14] was 125 % of control and the T/C (dose: 132.0 mg/kg/injection, schedule: Q01DX009 (ip), vehicle: saline) was 127 % of control. The T/C [1] was 127 and 140 % of control and the survivor count (dose: 300.0 mg/kg/injection, schedule: Q01DX009 (ip), vehicle: saline) was 0 of 6 and 1 of 6.
`CC1(C)CN(Cc2ccccc2)C(C)(C)CN1` was tested, and the survivor count (dose: 12.5 mg/kg/injection, schedule: Q01DX009 (ip), vehicle: saline with Tween-80) was 3 of 6, the survivor count [15] was 0 of 6 and the survivor count [10] was 1 of 6.
With `O=C(CNC(=O)c1cccc(C(=O)NCC(=O)Nc2ccc(C3=NCCN3)cc2)c1)Nc1ccc(C2=NCCN2)cc1` the T/C [12] was 131 and 140 % of control and the T/C (dose: 18.0 mg/kg/injection, schedule: Q01DX009 (ip), vehicle: saline) was 132 % of control.
`COc1cc([N+](=O)[O-])c(C)cc1NCc1ccc(OC)c(OC)c1` was tested, and the survivor count [1] was 6 of 6 and the survivor count [2] was 6 of 6.
